Source: PubChem BioAssay AID493014 (National Center for Advancing Translational Sciences (NCATS), 2011)
In all, about 340,000 compounds went through this assay and about 170 (0.05%) were called active. This list was built around the results that the source calls inconclusive (neither active nor inactive); the mix of calls is not that of the screen. The call rests on the fitted dose curve; in most records, active means well fitted inhibition curve with a large enough effect in the signal ratio, with a control signal flat (not every such curve was filed as active); inconclusive means small, poorly fitted or top-dose-only effect, or effect the other way, or a change in a side signal; inactive means flat fitted curve, though single readings scatter; the % refers to the signal ratio. Where the call is inconclusive, the potency comes from a doubtful curve fit.

assay: qHTS Assay to Find Inhibitors of Chronic Active B-Cell Receptor Signaling; conditions: ABC-DLBCL IkBa-CBG/CBR reporter, luminescence ratio (green luciferase fused to IkBa over red control in TMD8 lymphoma cells), 4 h; activity change, negative = inhibition: at 46.1 µM (top of the series);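 on activity change, negative = inhibition: plate controls were basal doxycycline-induced cells for no effect and cells given 10 µM MG132 for full effect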
Procedure, shortened: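 TMD8 ABC-DLBCL cells carrying doxycycline-inducible green luciferase fused to IkappaBalpha plus unfused red luciferase were exposed to compounds (up to 46 uM) for 4 hrs at 37C. Activity came from the overlap-corrected green/red luminescence ratio.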
Potency means the concentration at half of the fitted maximal effect.

SMILES	activity change, negative = inhibition	Potency
N[C@@H](Cc1ccccc1)C(=O)N1CCC(C(=O)NCC(=O)Nc2ccc(F)cc2)CC1	inconclusive: -14.6%	–
O=C1C2ON(c3ccccc3)C(c3cccnc3)C2C(=O)N1Cc1ccccc1 (stereo not drawn)	inconclusive: -0.18%	–
CCCCNC(=O)CCC(=O)NNc1nc2ccccc2c2nc(C)nn12	inactive: 0.363%	–
CN1C[C@@H]2C[C@@H](C3=Cc4cc(Cl)ccc4OC3)N3CCC[C@@]23C1=O	–	inconclusive: 7.08 µM [falling, partial curve, poor fit]
CC(C)(C)NCC(O)COc1cccc2c1C[C@H](O)[C@H](O)C2 (stereo partly drawn)	inconclusive: 1.07%	–
CCOC(=O)C1=C(COC(=O)CCOc2ccc(OCC)cc2)NC(=O)NC1C (stereo not drawn)	inconclusive: -1.23%	–
O=C(O)C1C2CCC(O2)C1C(=O)Nc1cccc(F)c1 (stereo not drawn)	inconclusive: -1.57%	–
CC(C)C1CC(=O)NC(SCC(=O)Nc2ccc(Br)cc2)=C1C#N (stereo not drawn)	inconclusive: -7.35%	–
CCOC(=O)c1cc2c(ccn2C)n1CC(=O)Nc1ccc(F)cc1	inconclusive: -24.8%	–
C=CCn1c(Sc2nnc(C)s2)nc2c1c(=O)[nH]c(=O)n2C	inconclusive: -1.03%	–
COC(=O)C1CCN(C(=O)COC(=O)c2n[nH]c3ccccc23)CC1	–	inconclusive: 22.4 µM [falling, partial curve]
Cc1ccccc1-c1nc(S(=O)(=O)c2ccccc2)c(NCCCN2CCOCC2)o1	inconclusive: -3.12%	–
O=C(Nc1ccc2c(c1)CCC2)Nc1ccccc1Cl	–	inconclusive: 10 µM [falling, partial curve]
CCN(Cc1ccccc1)C(=O)Cn1c(=O)n(CC(=O)N2CCCCC2)c(=O)c2sccc21	inactive: 0.652%	–
COc1ccc(C(=O)NCC(c2cccnc2)N2CCN(c3ccccc3)CC2)cc1OC (stereo not drawn)	inactive: -0.221%	–
O=C(N/N=C/c1ccco1)c1cc(-c2ccccc2)nc2ccccc12	inconclusive: -6.47%	–
CCCCN(C(=O)CCC(=O)OCC(=O)NCc1ccccc1)c1c(N)n(CCC)c(=O)[nH]c1=O	inconclusive: 1.02%	–
CSc1ccccc1C(=O)Nc1ccc2c(c1)CCC2	inactive: -1.44%	–
CC(C)NC(=S)N/N=C/c1ccc(N2CCOCC2)cc1	–	inconclusive: 32.6 µM [falling, single point]
CCc1cc(=O)oc2c3c(cc(OCC(=O)NCc4ccco4)c12)OC(C)(C)CC3	–	inconclusive: 20 µM [rising, partial curve, poor fit]
Cc1nc(C)c(C(=O)Nc2ccc(Oc3ccccc3)cc2)o1	inactive: -1.07%	–
O=C(Oc1cccc(N2C(=O)CCC2=O)c1)c1ccccc1	–	inconclusive: 0.731 µM [falling, full curve, poor fit]
COc1cccc(C2CC(=O)Nc3cc4c(cc32)OCCO4)c1OC(C)C (stereo not drawn)	inactive: -7.84%	–
Cc1nc(C)c(C(=O)NCc2ccccc2Cl)o1	inconclusive: -28.6%	–
O=C(CN1CCCC1)Nc1ccc(OCc2ccccc2)cc1	inconclusive: 22.4%	–
CCCCC(=O)NC(=S)Nc1cc(C(=O)O)ccc1OC	inconclusive: -5.99%	–
COc1cc(CNCCN2CCOCC2)ccc1OCc1ccc(Cl)cc1	inactive: 23.7%	–

SMILES	activity change, negative = inhibition	Potency
CCN(CC)S(=O)(=O)c1ccc(S(=O)(=O)N2CCN(CCC#N)CC2)cc1	inactive: -0.0869%	–
C/C(=N\NC(=O)c1c(Br)cnn1C)c1ccc(NC(=O)c2ccc(F)cc2)cc1	inactive: 3.15%	–
CCOC(=O)c1csc(NC(=O)C(C)(C)C)n1	–	inconclusive: 2.06 µM [rising, full curve, poor fit]
CCCn1nnc(NC(=S)NC(=O)c2cccs2)n1	–	inconclusive: 29.1 µM [falling, single point]
CC(C)(Oc1ccc(Cl)cc1)C(=O)Nc1ccc(S(=O)(=O)Nc2ncccn2)cc1	inactive: 0.0595%	–
O=C1N=C(N2CCCCC2)S/C1=C/C1=Cc2ccccc2OC1	inconclusive: -7.73%	–
CCOC(=O)Cc1csc(NC(=O)c2cc(=O)c3ccccc3o2)n1	–	inconclusive: 11.2 µM [falling, partial curve]
O=C(c1ccc(OC2CCN(Cc3ccccn3)CC2)cc1)N1CCCCO1	inactive: -2.29%	–
COc1cc(C)ccc1OCCCOc1ccccc1Br	inactive: 1.2%	–
CCC/C(=N/NC(=O)c1ccccc1Cl)c1ccccc1	–	inconclusive: 15.8 µM [falling, partial curve]
CS(=O)(=O)c1ccccc1-c1nnc(-c2ccc(Cl)cc2)o1	inconclusive: 0.839%	–
C/C(=N\Nc1cccc(C(=O)O)c1)c1cc2ccccc2o1	–	inconclusive: 15.8 µM [falling, partial curve]
O=C(Nc1ccc(Br)cc1Cl)N1CCOCC1	inconclusive: 5.13%	–
OCCCCC#Cc1c(-c2ccsc2)sc2ccccc12	inactive: 15.5%	–
CC(=O)Nc1ccc2nc(NC(=O)c3ccc([N+](=O)[O-])s3)sc2c1	–	inconclusive: 28.2 µM [falling, single point]
Cc1ccc2c(c1)N(CC(=O)OCC(=O)NCc1ccccc1)C(=O)CO2	inconclusive: 17.9%	–
Cc1ccc(CNC(=O)c2cc(=O)c3ccc(C)cc3o2)cc1	inactive: 3.15%	–
COCCSc1nnc(NC(=O)CCS(=O)(=O)Cc2ccccc2)s1	–	inconclusive: 14.1 µM [falling, partial curve]
O=S(=O)(NCc1ccccc1)NCc1cccc(C(F)(F)F)c1	inconclusive: 1.93%	–
CNC(=S)N(Cc1cccs1)Cc1cc2cc(OC)c(OC)cc2[nH]c1=O	inconclusive: 14.6%	–
COc1cccc(N2CC(C)Cn3c2nc2c3c(=O)[nH]c(=O)n2C)c1 (stereo not drawn)	inconclusive: 2.17%	–
O=c1c2cc(Br)ccc2nc(-c2cccc(C(F)(F)F)c2)n1O	inactive: -1.1%	–
CCC(C)C(=O)OCC1(c2ccc(C)cc2OC(=O)C(C)C)CO1 (stereo not drawn)	–	inconclusive: 31.6 µM [falling, single point]
COC(=O)c1ccccc1NC(=O)COc1ccccc1[N+](=O)[O-]	–	inconclusive: 4.47 µM [falling, partial curve]
Cc1ccc(-c2nc3ncccn3c2NC2CCCCC2)o1	inconclusive: -1.12%	–
COc1cc(NC(=O)c2cccc(Cl)c2)ccc1NC(=O)c1cccs1	inconclusive: 11.5%	–

Two compounds drawn at random from the list so far, as already listed:
SMILES	activity change, negative = inhibition	Potency
Cc1ccc(-c2nc3ncccn3c2NC2CCCCC2)o1	inconclusive: -1.12%	–
CNC(=S)N(Cc1cccs1)Cc1cc2cc(OC)c(OC)cc2[nH]c1=O	inconclusive: 14.6%	–
